Test results published in PubChem BioAssay.
This list was built around the results that the source calls inconclusive (neither active nor inactive); the mix of calls is not that of the screen. Activity calls are given as the source filed them.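 The calls were made as follows: active = RAM network inhibition above 8.4% in each of two replicates, 3 SD over the compound average; inconclusive = above 8.4% inhibition in only one replicate; inactive = 8.4% inhibition or less in each replicate.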

Experiment: RAM signaling pathway blockade in yeast – S. cerevisiae, Pdr1DBD-CYC8 efflux-inhibited sensitized strain, primary screen (AID 1298);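 also: 0% = DMSO untreated cells without growth and 100% = 10 µM 1-NA-PP1 full growth; higher means more yeast growth rescued from 5-FOA killing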
Details: S. cerevisiae cbk1-as DSE1-URA3 strain, 5-FOA growth OD615, 2 d; at 50 µM; active compounds read high

Row | Compound | RAM network inhibition
1 | O=C(C1CC1)N1CCc2cc(Br)cc(S(=O)(=O)N3CCOCC3)c21 | inactive: 2.33%
2 | COCCNc1oc(-c2ccccc2Cl)nc1C#N | inconclusive: 20.2%
3 | COc1ccc(-c2nnc(SCC(=O)NC(C)c3ccccc3)o2)cc1 (centres undefined) | inactive: 6.94%
4 | CN(C)c1ccc(CN(C)C2CCCCC2)cc1 | inconclusive: 33.6%
5 | Cc1c(C(=O)O)nn(-c2ccccc2)c(=O)c1C#N | inconclusive: 9.19%
6 | C=CCn1c(SCC(=O)Nc2cccc(OC)c2)nnc1-c1cccnc1 | inconclusive: 9.49%
7 | COc1ccc(OC)c2c1sc(=NC(=O)c1ccco1)n2C | inconclusive: 9%
8 | O=C(CCS(=O)(=O)c1cccc2nonc12)N1CCN(c2ccc(F)cc2)CC1 | inconclusive: 8.96%
9 | Cc1onc(-c2ccccc2Cl)c1C(=O)NCc1ccc2c(c1)cc(C)n2C | inactive: 5.14%
10 | COc1ccc(OC)c(NC(=O)C2COc3ccccc3O2)c1 (centres undefined) | inconclusive: 9.84%
11 | CCOC(=O)c1[nH]c(C)c(C(=O)N2CCOCC2)c1C | inconclusive: 8.89%
12 | COc1ccc(-c2nc(CS(=O)CC(=O)NCc3ccc4c(c3)OCO4)c(C)o2)cc1 (centres undefined) | inconclusive: 14.7%
13 | CCN(CC)c1ccc(NC(=O)C2CC3CCC2C3)cc1 (centres undefined) | inactive: 6.6%
14 | Cc1c(N=Cc2ccco2)c(=O)n(-c2ccccc2)n1C | inactive: 0.89%
15 | CCn1cc(C(=O)N2CCN(Cc3ccc4c(c3)OCO4)CC2)c2cc(OC)c(OC)cc2c1=O | inactive: 2.76%
16 | O=S1(=O)C=C(SCCN2CCCCC2)c2ccccc21 | inconclusive: 16.5%
17 | O=C(CCS(=O)(=O)c1cccc2nonc12)N1CC(=O)N(CCc2ccccc2)C(=O)C1 | inconclusive: 12.9%
18 | CCN1CCN(CC(=O)Nc2ccc(Cl)c(Cl)c2)C(=O)C1=O | inconclusive: 9.25%
19 | CCOC(=O)CSc1nc2c(c(=O)n(C)c(=O)n2C)n1Cc1ccccc1F | inconclusive: 9.75%
20 | Cc1ccc(C)c(C(=O)Nc2c(C(N)=O)oc3ccccc23)c1 | inconclusive: 10.5%

Exported with each value named: 2 of the compounds above
COc1ccc(-c2nc(CS(=O)CC(=O)NCc3ccc4c(c3)OCO4)c(C)o2)cc1 (centres undefined)
  RAM network inhibition: inconclusive: 14.7%
CCN(CC)c1ccc(NC(=O)C2CC3CCC2C3)cc1 (centres undefined)
  RAM network inhibition: inactive: 6.6%

Later entries:

Row | Compound | RAM network inhibition
21 | Cc1cccc(-c2noc(CN(C(=O)c3c(-c4ccccc4Cl)noc3C)C(C)C)n2)c1 | inconclusive: 8.31%
22 | CCOC(=O)C1CCN(C(=O)Nc2ccc(Cl)cc2)CC1 | inconclusive: 11.6%
23 | O=C(Cn1c(=O)sc2ccccc21)NCCOc1ccccc1F | inactive: 10.5%
24 | COC(=O)CSc1nc2ccc(NC(=O)CSc3nnnn3Cc3ccccc3)cc2s1 | inconclusive: 12.2%
25 | CC(NC(=O)c1cn(C)c2ccc(S(=O)(=O)N3CCCC3)cc2c1=O)c1ccc2c(c1)OCCO2 (centres undefined) | inconclusive: 9.68%
26 | CC1CCN(c2nc(-c3ccccc3)cc(C(F)(F)F)n2)CC1 | inconclusive: 13.5%
27 | Cn1c(-n2c(CCCN3C(=O)c4ccccc4C3=O)nc3ccccc3c2=O)nc2ccccc21 | inconclusive: 7.85%
28 | COc1ccccc1-n1c(CNC(=O)c2ccccc2)nnc1SCC(=O)Nc1nnc(C)s1 | inconclusive: 7.15%
29 | C=CCNc1nc2c(c(=O)n(C)c(=O)n2C)n1Cc1ccc(F)cc1 | inactive: 2.3%
30 | COc1cccc(CNC(=O)CN(c2cc(C)cc(C)c2)S(=O)(=O)c2c(C)noc2C)c1 | inactive: 7.12%
31 | O=C(Oc1cc2oc(=O)c3c(c2cc1Cl)CCCC3)c1ccco1 | inconclusive: 10.3%
32 | OCCCc1nc2n(n1)C(c1cccs1)C=C(c1ccccc1)N2 (centres undefined) | inactive: 3.92%
33 | CCN(CC)S(=O)(=O)c1ccc(C(=O)OCCN2C(=O)CCC2=O)cc1 | inactive: 4.16%
34 | Cc1ccc(-c2nc(C(=O)NC3CCCCCC3)no2)cc1 | inconclusive: 7.89%
35 | CCn1c(SCC(=O)Nc2ccc3c(c2)OCO3)nc2c(c1=O)SC(C)C2 (centres undefined) | inconclusive: 10.9%
36 | CN1CSC2=C(C#N)C(c3cccc(OCc4ccccc4)c3)CC(=O)N2C1 (centres undefined) | inconclusive: 16.6%
37 | COc1ccc(C)cc1NC(=O)CSc1nnc(-c2ccccn2)n1Cc1ccco1 | inconclusive: 11.2%
38 | CCOc1ccc(Cn2nnc(C(=O)Nc3cc(C)cc(C)c3)c2N)cc1 | inactive: 8.35%
39 | COC(=O)c1ccc2c(c1)N(Cc1ccccc1F)C(=O)c1ccccc1S2=O (centres undefined) | inconclusive: 11.1%
